Assay results from patent EP4596580A1.
These are yes or no findings as the source states them, for the method shown. Some binding calls cover weakened binding; strength is not graded here.

Columns and labels:
[1] = target: His-human LIGHT (human); test: ELISA, His-huLIGHT coated
[2] = target: His-cynomolgus monkey LIGHT (cynomolgus monkey); test: ELISA, His-cynoLIGHT coated

binding [1]: binds
binding [2]: binds
B1: hum_LT-m37-13 (antibody, human IgG4, V domains shown)
VH: QVQLVQSGAEVKKPGASVKVSCKASGYSFTGYFINWVRQAPGQGLEWIGRIYPYNVDTFYNQNFKGRVTMTADKSTSTAYMELSSLRSEDTAVYYCGRGTHYYGSSGAMDYWGQGTLVTVSS
VL: EIVLTQSPATLSVSPGERATLSCKASQNVGTAVAWYQQKPGQSPRLLIYSASNRYTGIPARFSGSGSGTEFTLTISSLQSEDFAVYFCQQYSSYPYTFGGGTKVEIK
